These results are taken from patent US20230025756A1.

Amino acid sequences for entries named in this document (tags omitted). A change or cut given only in a name is not applied to a line headed by its entry. Residues count along the entry.
UniProt P20023, residues 21-1033: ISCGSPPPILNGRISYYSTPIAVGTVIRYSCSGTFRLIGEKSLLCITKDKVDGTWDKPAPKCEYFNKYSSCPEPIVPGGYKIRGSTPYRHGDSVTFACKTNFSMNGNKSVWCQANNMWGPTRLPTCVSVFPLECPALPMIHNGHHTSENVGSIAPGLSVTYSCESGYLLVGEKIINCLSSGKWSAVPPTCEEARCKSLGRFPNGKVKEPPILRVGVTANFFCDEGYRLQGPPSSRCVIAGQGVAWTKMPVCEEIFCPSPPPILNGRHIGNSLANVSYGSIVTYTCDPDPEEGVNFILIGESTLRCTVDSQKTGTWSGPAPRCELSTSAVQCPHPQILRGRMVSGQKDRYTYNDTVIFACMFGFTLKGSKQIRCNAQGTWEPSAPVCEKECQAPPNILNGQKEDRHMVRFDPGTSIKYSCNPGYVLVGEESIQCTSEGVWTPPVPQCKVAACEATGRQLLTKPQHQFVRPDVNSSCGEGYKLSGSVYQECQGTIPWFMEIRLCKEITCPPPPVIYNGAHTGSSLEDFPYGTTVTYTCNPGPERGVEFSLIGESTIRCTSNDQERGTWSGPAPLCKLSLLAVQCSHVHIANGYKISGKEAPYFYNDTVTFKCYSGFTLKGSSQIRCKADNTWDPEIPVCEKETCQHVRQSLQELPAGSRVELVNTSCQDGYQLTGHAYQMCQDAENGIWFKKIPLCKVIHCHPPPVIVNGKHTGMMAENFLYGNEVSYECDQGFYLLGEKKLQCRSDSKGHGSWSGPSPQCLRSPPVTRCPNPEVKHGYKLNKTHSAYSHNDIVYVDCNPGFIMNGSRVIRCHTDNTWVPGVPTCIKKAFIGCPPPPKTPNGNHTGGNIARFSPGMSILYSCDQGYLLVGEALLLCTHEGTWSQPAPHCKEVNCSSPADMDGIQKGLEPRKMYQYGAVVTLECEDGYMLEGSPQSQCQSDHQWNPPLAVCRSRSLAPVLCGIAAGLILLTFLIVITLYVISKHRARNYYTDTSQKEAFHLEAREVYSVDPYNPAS
UniProt P17927, residues 42-2039: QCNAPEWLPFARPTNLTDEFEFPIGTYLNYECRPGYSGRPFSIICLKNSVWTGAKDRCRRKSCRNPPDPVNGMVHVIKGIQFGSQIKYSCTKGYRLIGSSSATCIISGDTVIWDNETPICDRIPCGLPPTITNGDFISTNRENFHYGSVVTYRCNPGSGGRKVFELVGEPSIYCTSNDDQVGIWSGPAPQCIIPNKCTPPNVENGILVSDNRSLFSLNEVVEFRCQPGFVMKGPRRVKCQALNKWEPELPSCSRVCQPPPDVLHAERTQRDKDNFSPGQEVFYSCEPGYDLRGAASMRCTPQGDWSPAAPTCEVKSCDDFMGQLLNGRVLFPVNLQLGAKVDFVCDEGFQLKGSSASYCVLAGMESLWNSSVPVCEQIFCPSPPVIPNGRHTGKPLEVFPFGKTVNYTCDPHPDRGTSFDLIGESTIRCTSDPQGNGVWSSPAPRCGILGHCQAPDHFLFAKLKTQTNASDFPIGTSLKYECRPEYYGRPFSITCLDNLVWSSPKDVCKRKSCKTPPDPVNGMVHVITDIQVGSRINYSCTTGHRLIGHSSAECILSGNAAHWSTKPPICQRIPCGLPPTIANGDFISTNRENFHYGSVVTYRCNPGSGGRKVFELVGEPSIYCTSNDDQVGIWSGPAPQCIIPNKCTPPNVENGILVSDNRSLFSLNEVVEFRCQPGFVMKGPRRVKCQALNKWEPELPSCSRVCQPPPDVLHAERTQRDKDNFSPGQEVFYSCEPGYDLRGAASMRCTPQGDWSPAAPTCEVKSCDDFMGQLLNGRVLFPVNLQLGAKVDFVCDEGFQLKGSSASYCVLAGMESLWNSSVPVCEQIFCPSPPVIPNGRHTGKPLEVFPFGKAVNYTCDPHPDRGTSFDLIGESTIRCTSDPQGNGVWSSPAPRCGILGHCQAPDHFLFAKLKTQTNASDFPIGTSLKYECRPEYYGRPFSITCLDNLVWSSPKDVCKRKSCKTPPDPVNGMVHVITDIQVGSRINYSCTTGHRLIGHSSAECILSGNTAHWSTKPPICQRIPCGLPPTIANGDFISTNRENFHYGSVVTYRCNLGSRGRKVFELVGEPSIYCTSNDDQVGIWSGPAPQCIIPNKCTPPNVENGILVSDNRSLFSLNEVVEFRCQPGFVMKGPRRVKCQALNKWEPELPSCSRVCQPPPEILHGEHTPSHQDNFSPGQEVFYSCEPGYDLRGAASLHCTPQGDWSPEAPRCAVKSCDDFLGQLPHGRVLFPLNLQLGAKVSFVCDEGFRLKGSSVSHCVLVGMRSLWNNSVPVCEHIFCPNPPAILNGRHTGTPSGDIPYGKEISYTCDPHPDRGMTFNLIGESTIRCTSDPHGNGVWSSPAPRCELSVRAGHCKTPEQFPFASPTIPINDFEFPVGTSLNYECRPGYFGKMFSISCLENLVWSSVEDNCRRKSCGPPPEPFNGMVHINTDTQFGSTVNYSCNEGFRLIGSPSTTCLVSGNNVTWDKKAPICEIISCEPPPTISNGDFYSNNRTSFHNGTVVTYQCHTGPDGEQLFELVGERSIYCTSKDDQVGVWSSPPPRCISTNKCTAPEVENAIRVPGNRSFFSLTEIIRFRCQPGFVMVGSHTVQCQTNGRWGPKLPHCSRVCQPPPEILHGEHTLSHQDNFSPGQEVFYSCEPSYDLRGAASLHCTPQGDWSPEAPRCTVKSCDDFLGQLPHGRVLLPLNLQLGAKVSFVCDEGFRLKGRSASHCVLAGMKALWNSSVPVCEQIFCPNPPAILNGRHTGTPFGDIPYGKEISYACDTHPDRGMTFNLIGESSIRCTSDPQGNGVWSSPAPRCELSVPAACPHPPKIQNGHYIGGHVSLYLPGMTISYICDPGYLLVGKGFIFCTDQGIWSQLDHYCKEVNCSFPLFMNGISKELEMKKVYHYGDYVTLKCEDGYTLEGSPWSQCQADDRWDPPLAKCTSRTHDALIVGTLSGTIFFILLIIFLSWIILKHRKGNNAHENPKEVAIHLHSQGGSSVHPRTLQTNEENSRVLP
UniProt P01024: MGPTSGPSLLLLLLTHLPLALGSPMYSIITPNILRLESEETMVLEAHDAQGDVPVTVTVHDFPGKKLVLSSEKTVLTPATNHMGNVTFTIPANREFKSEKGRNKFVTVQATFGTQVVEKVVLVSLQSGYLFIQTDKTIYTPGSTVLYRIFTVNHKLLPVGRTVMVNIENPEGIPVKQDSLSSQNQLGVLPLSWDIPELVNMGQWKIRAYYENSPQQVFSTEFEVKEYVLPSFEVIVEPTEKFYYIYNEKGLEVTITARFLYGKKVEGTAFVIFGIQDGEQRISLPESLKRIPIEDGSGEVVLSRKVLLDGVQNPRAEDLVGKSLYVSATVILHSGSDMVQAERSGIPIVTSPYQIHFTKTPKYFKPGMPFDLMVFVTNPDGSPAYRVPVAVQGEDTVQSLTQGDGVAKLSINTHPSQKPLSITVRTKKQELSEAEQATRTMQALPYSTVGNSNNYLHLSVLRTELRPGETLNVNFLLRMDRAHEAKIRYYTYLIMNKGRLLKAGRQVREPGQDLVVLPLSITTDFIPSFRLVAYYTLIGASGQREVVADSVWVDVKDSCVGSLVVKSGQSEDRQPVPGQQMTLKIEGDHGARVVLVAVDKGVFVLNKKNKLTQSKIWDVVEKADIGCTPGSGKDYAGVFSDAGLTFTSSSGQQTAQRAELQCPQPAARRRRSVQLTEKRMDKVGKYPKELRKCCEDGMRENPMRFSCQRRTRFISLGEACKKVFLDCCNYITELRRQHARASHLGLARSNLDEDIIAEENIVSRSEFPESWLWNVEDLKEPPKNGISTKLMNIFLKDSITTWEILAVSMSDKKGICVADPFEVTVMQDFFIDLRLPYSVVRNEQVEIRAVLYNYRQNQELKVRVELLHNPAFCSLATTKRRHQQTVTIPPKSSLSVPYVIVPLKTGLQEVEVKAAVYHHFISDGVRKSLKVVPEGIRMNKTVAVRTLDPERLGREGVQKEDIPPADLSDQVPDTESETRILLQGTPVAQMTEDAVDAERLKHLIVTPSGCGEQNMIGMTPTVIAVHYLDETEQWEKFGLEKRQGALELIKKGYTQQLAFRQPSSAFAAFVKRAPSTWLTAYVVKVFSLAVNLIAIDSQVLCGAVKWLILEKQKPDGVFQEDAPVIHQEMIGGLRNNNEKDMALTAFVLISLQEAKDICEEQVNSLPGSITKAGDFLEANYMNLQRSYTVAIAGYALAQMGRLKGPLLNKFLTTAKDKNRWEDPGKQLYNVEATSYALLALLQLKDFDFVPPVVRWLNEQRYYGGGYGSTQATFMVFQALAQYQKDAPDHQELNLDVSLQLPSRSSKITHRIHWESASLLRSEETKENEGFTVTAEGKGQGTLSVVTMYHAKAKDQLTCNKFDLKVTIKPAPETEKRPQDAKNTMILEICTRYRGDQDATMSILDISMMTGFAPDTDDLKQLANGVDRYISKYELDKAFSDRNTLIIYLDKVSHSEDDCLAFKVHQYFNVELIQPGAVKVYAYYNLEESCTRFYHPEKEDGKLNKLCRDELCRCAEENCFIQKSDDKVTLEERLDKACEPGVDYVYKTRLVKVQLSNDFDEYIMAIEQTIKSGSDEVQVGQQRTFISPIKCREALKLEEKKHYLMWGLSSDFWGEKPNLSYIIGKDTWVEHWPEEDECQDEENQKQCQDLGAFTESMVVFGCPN

No constants are given. Whether binding was seen depends on the method and setting. Some results given as binding are weak or reduced against the parent protein; the word gives no strength.

Assay [1] concerns the target complement receptor 2 (CR2/CD21) on human B cells (human) (UniProt P20023). The assay is described as follows: flow cytometry on purified human B cells. (In general: In flow cytometry, cells or beads pass a laser one at a time.)
For assay [2], the target named is complement receptor 1 (CR1/CD35) on human B cells (human) (UniProt P17927). The assay is described as follows: flow cytometry on purified human B cells.
Assay [3] has the same target. The assay is described as follows: flow cytometry on human B cells.

Regarding “C3dg tetramers (recombinant biotinylated C3dg with PE-labeled streptavidin) (from UniProt P01024 955-1303; P22629 37-163) (ligand)”, in assay [1], the binding entry was “binds”.
For the substance “biot-C3b tetramers (biotinylated human C3b bound to streptavidin) (from UniProt P01024 23-667; P01024 749-1663; P22629 37-163) (ligand)”, the binding entry in assay [2] and in assay [3] was “binds” throughout.
